In this experiment the target is Recombinant MAPKAPK2 (MK-2) (Homo sapiens, UniProt P49137). Kind of experiment: Determination of MK-2 IC50 (HSP-peptide phosphorylation, anion exchange resin capture assay). The format is biochemical. The following applies: read-out: MAPKAP2 Avg. IC50; tested form: TFA.

Chains of the proteins cited; added tags and fusions are not shown.
UniProt P49137, whole entry: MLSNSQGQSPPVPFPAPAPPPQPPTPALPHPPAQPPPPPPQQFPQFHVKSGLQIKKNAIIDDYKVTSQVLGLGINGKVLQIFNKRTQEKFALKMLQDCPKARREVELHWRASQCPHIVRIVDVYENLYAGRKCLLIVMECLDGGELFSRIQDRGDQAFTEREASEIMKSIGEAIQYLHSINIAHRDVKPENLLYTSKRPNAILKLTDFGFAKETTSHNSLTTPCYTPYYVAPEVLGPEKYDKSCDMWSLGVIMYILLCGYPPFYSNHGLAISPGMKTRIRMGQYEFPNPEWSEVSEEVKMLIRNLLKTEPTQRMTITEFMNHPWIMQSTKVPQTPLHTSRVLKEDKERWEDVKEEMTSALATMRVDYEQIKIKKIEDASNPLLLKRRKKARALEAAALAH

pIC50: −log10 of the molar value. The match of structure and compound is tentative.

The pIC50 is the IC50 on a negative log10 scale, so that one unit is a factor of ten. As for `O=C1NCCc2[nH]c(-c3ccnc(-c4cccc5cccnc45)c3)cc21`, the pIC50 was 4.97.

(Values after patent US20040209897A1 (Pharmacia Corporation, priority 2002, published 2004).)
